This note sets out measurements from patent publication EP4687981A2.

No constants are given. Whether binding was seen depends on the method and setting. Some entries that bind do so weakly or less than the wild type. Where a sequence is shown, tags or fusion partners need not be part of it.

The assay deals with T1, full length human CDH11 C-terminally tagged with GFP, expressed on Expi293F cells (human) (UniProt P55287).
T1 sequence (looked up): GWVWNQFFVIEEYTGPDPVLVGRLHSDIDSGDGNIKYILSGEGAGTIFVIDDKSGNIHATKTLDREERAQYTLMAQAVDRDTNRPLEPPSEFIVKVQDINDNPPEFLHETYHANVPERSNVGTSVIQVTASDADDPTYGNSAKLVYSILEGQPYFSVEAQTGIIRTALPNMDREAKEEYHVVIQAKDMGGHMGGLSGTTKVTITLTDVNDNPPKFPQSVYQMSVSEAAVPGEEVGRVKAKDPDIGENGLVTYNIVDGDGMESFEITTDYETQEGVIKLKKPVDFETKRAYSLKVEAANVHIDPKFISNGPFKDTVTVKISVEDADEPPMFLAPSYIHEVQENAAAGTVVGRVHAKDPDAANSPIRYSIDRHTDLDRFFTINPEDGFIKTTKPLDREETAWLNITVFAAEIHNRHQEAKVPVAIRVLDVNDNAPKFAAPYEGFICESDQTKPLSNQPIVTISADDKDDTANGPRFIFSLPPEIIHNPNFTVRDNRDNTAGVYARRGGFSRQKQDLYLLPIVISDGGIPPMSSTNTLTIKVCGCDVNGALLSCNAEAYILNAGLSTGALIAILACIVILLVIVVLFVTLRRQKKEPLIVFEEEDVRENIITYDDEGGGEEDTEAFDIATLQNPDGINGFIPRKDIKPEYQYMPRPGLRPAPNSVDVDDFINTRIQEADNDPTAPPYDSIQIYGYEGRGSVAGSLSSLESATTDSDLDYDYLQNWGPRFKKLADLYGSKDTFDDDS
Description: flow cytometry on transfected Expi293F cells (Fig 14B: 1A1, 2A1, 2D2, 6D5). In general terms: In flow cytometry, cells or beads pass a laser one at a time.

B1: anti-CDH11 antibody 1A1 (antibody, V domains shown)
VH: EVQLVESGGGLVQPGGSLRLSCAASGFTFSTFWMSWVRQGPGKGLEWVANIKEDGNEKYYVDSVKGRFTVSRDSDKNSLYLEMNSLRVEDTGLYYCARGSWYGNFQHWGQGTLVTVSS
VL: DIQMTQSPSSLSASVGDRITITCQASQDISNFLNWYQQKPGKAPKLLIYDASNLETGVPSRFSGTGSGTDFTFTISSLQSVDIATYYCQQYDNLPPTFGGGTRVEIK
As for B1, the binding entry is listed as “binds”.
